Experimental data published in publication PMC11005723, “Development of Complementary Photo‐arginine/lysine to Promote Discovery of Arg/Lys hPTMs Interactomes” (Advanced Science, 2024).
The source gives many values for each of these; only a part stands here.

Test system: HEK293T nuclear lysates
Assay: SILAC‐based pull‐down proteomics H4K5me1/H4K5 (probes 6/5)
Type: binding, human

## probe 6: H4K5me peptide probe with photo‐arginine R(dz) and K(biotin) (SGRGKGGKGLGKGGK; photo-arginine R(dz) at 3; monomethyl-lysine at 5; K(biotin) at 15)
Protein CHD4 (A0A2R8Y425), run C6
  C6 log (H4K5me/H4K5): 0.0526
Protein CHD8 (Q9HCK8), SILAC run B6
  B6 log2 (H4K5me/H4K5): -0.7918
Protein CHD8 (Q9HCK8), SILAC run C6
  C6 log (H4K5me/H4K5): -0.539
Protein CHORDC1 (Q9UHD1), SILAC run B6
  B6 log2 (H4K5me/H4K5): -0.3252
Protein CHORDC1 (Q9UHD1), SILAC run C6
  C6 log (H4K5me/H4K5): -0.1742
Protein CKAP5 (Q14008), SILAC run B6
  B6 log2 (H4K5me/H4K5): -0.2391
Protein CKAP5 (Q14008), SILAC run C6
  C6 log (H4K5me/H4K5): -0.06611
Protein CMAS (Q8NFW8), SILAC run B6
  B6 log2 (H4K5me/H4K5): -0.2964
Protein CMAS (Q8NFW8), SILAC run C6
  C6 log (H4K5me/H4K5): -0.2024
Protein CORO1C (Q9ULV4), run B6
  B6 log2 (H4K5me/H4K5): 0.02026
Protein CORO1C (Q9ULV4), run C6
  C6 log (H4K5me/H4K5): 0.01128
Protein CPNE3 (O75131), run B6
  B6 log2 (H4K5me/H4K5): 0.002092
Protein CPNE3 (O75131), run C6
  C6 log (H4K5me/H4K5): -0.07952
Protein CPOX (P36551), SILAC run B6
  B6 log2 (H4K5me/H4K5): -0.357
Protein CPOX (P36551), SILAC run C6
  C6 log (H4K5me/H4K5): -0.3607
Protein CPSF2 (Q9P2I0), run B6
  B6 log2 (H4K5me/H4K5): 0.02363
Protein CPSF2 (Q9P2I0), run C6
  C6 log (H4K5me/H4K5): -0.07048
Protein CPSF7 (F5H669), run B6
  B6 log2 (H4K5me/H4K5): 0.09419
Protein CPSF7 (F5H669), run C6
  C6 log (H4K5me/H4K5): -0.1277
Protein CSNK2B (P67870), run B6
  B6 log2 (H4K5me/H4K5): 0.003837
Protein CSNK2B (P67870), run C6
  C6 log (H4K5me/H4K5): -0.1748
Protein CSTF1 (Q05048), run B6
  B6 log2 (H4K5me/H4K5): 0.09689
Protein CSTF1 (Q05048), run C6
  C6 log (H4K5me/H4K5): 0.02339
Protein CTBP2 (P56545), SILAC run B6
  B6 log2 (H4K5me/H4K5): -0.2045
Protein CTBP2 (P56545), SILAC run C6
  C6 log (H4K5me/H4K5): 0.1511
Protein CTTN (Q14247), run B6
  B6 log2 (H4K5me/H4K5): 0.043
Protein CTTN (Q14247), run C6
  C6 log (H4K5me/H4K5): 0.03518
Protein CXXC1 (Q9P0U4), SILAC run B6
  B6 log2 (H4K5me/H4K5): -0.2086
Protein CXXC1 (Q9P0U4), SILAC run C6
  C6 log (H4K5me/H4K5): -0.3937
Protein D6R9P3 HNRNPAB, run B6
  B6 log2 (H4K5me/H4K5): 0.5392
Protein D6R9P3 HNRNPAB, run C6
  C6 log (H4K5me/H4K5): 0.5392
Protein DARS (P14868), SILAC run B6
  B6 log2 (H4K5me/H4K5): -0.4811
Protein DARS (P14868), SILAC run C6
  C6 log (H4K5me/H4K5): -0.009973
Protein DCAF8 (V9GY54), run B6
  B6 log2 (H4K5me/H4K5): 0.05924
Protein DCAF8 (V9GY54), run C6
  C6 log (H4K5me/H4K5): -0.3216
Protein DDB1 (Q16531), SILAC run B6
  B6 log2 (H4K5me/H4K5): -0.3208
Protein DDB1 (Q16531), SILAC run C6
  C6 log (H4K5me/H4K5): -0.002132
Protein DDOST (A0A0C4DGS1), run B6
  B6 log2 (H4K5me/H4K5): 0.0291
Protein DDOST (A0A0C4DGS1), run C6
  C6 log (H4K5me/H4K5): -0.1546
Protein DDX17 (A0A1X7SBZ2), run B6
  B6 log2 (H4K5me/H4K5): 0.03459
Protein DDX17 (A0A1X7SBZ2), run C6
  C6 log (H4K5me/H4K5): 0.09966
Protein DDX23 (Q9BUQ8), SILAC run B6
  B6 log2 (H4K5me/H4K5): -0.645
Protein DDX23 (Q9BUQ8), SILAC run C6
  C6 log (H4K5me/H4K5): 0.07117
Protein DDX52 (Q9Y2R4), run B6
  B6 log2 (H4K5me/H4K5): 0.01416
Protein DDX52 (Q9Y2R4), run C6
  C6 log (H4K5me/H4K5): -0.154
Protein DEK (P35659), run B6
  B6 log2 (H4K5me/H4K5): 0.08378
Protein DEK (P35659), run C6
  C6 log (H4K5me/H4K5): 0.01506
Protein DENR (O43583), SILAC run B6
  B6 log2 (H4K5me/H4K5): -0.3915
Protein DENR (O43583), SILAC run C6
  C6 log (H4K5me/H4K5): -0.324
Protein DFFA (O00273), SILAC run B6
  B6 log2 (H4K5me/H4K5): -0.7905
Protein DFFA (O00273), SILAC run C6
  C6 log (H4K5me/H4K5): 0.3141
Protein DHX9 (Q08211), run B6
  B6 log2 (H4K5me/H4K5): 0.03982
Protein DHX9 (Q08211), run C6
  C6 log (H4K5me/H4K5): 0.0187
Protein DIDO1 (Q9BTC0), SILAC run B6
  B6 log2 (H4K5me/H4K5): -0.657
Protein DIDO1 (Q9BTC0), SILAC run C6
  C6 log (H4K5me/H4K5): -0.05402
Protein DIEXF (Q68CQ4), SILAC run B6
  B6 log2 (H4K5me/H4K5): -0.2279
Protein DIEXF (Q68CQ4), SILAC run C6
  C6 log (H4K5me/H4K5): -0.1955
Protein DKC1 (O60832), run B6
  B6 log2 (H4K5me/H4K5): -0.003383
Protein DKC1 (O60832), run C6
  C6 log (H4K5me/H4K5): 0.05653
Protein DLGAP5 (Q15398), run B6
  B6 log2 (H4K5me/H4K5): -0.003472
Protein DLGAP5 (Q15398), run C6
  C6 log (H4K5me/H4K5): 0.1996
Protein DNAJA1 (P31689), SILAC run B6
  B6 log2 (H4K5me/H4K5): -0.2792
Protein DNAJA1 (P31689), SILAC run C6
  C6 log (H4K5me/H4K5): -0.1772
Protein DNAJC2 (Q99543), SILAC run B6
  B6 log2 (H4K5me/H4K5): -0.3923
Protein DNAJC2 (Q99543), SILAC run C6
  C6 log (H4K5me/H4K5): -0.3831
Protein DNM2 (P50570), run B6
  B6 log2 (H4K5me/H4K5): -0.02166
Protein DNM2 (P50570), run C6
  C6 log (H4K5me/H4K5): 0.0843
Protein DR1 (Q01658), SILAC run B6
  B6 log2 (H4K5me/H4K5): -0.8115
Protein DR1 (Q01658), SILAC run C6
  C6 log (H4K5me/H4K5): -0.5699
Protein DYNC1I2 (Q13409), SILAC run B6
  B6 log2 (H4K5me/H4K5): -0.2787
Protein DYNC1I2 (Q13409), SILAC run C6
  C6 log (H4K5me/H4K5): -0.5038
Protein DYNC1LI1 (Q9Y6G9), SILAC run B6
  B6 log2 (H4K5me/H4K5): -0.3983
Protein DYNC1LI1 (Q9Y6G9), SILAC run C6
  C6 log (H4K5me/H4K5): -0.2367
Protein DYNLL1 (P63167), run B6
  B6 log2 (H4K5me/H4K5): 0.005615
Protein DYNLL1 (P63167), run C6
  C6 log (H4K5me/H4K5): -0.116
Protein E9PBF6 LMNB1, run B6
  B6 log2 (H4K5me/H4K5): 1.205
Protein E9PBF6 LMNB1, run C6
  C6 log (H4K5me/H4K5): 1.205
Protein E9PID8 CSTF2, run B6
  B6 log2 (H4K5me/H4K5): 0.6287
Protein E9PID8 CSTF2, run C6
  C6 log (H4K5me/H4K5): 0.6287
Protein E9PKG1 PRMT1, run B6
  B6 log2 (H4K5me/H4K5): 0.1316
Protein E9PKG1 PRMT1, run C6
  C6 log (H4K5me/H4K5): 0.02146
Protein E9PLT0 CSDE1, run B6
  B6 log2 (H4K5me/H4K5): 0.4269
Protein E9PLT0 CSDE1, run C6
  C6 log (H4K5me/H4K5): -0.09917
Protein E9PNW0 NAP1L4, run B6
  B6 log2 (H4K5me/H4K5): 0.2756
Protein E9PNW0 NAP1L4, run C6
  C6 log (H4K5me/H4K5): 0.24
Protein EBNA1BP2 (Q99848), SILAC run B6
  B6 log2 (H4K5me/H4K5): -0.2103
Protein EBNA1BP2 (Q99848), SILAC run C6
  C6 log (H4K5me/H4K5): -0.1347
Protein EEF2 (P13639), run B6
  B6 log2 (H4K5me/H4K5): 0.0343
Protein EEF2 (P13639), run C6
  C6 log (H4K5me/H4K5): -0.01287
Protein EFTUD2 (Q15029), run B6
  B6 log2 (H4K5me/H4K5): 0.08927
Protein EFTUD2 (Q15029), run C6
  C6 log (H4K5me/H4K5): 0.05893
Protein EIF2S3 (P41091), SILAC run B6
  B6 log2 (H4K5me/H4K5): -0.4812
Protein EIF2S3 (P41091), SILAC run C6
  C6 log (H4K5me/H4K5): -0.2686
Protein EIF4A3 (P38919), run B6
  B6 log2 (H4K5me/H4K5): 0.05017
Protein EIF4A3 (P38919), run C6
  C6 log (H4K5me/H4K5): 0.07576
Protein EIF4G1 (E7EX73), SILAC run B6
  B6 log2 (H4K5me/H4K5): -0.2663
Protein EIF4G1 (E7EX73), SILAC run C6
  C6 log (H4K5me/H4K5): -0.0385
Protein EIF6 (B7ZBH1), run B6
  B6 log2 (H4K5me/H4K5): 0.04135
Protein EIF6 (B7ZBH1), run C6
  C6 log (H4K5me/H4K5): 0.2467
Protein ELAVL1 (Q15717), run B6
  B6 log2 (H4K5me/H4K5): 0.06776
Protein ELAVL1 (Q15717), run C6
  C6 log (H4K5me/H4K5): -0.02088
Protein ELF2 (Q15723), SILAC run B6
  B6 log2 (H4K5me/H4K5): -0.8729
Protein ELF2 (Q15723), SILAC run C6
  C6 log (H4K5me/H4K5): -0.9053
Protein ESCO2 (Q56NI9), SILAC run B6
  B6 log2 (H4K5me/H4K5): -0.5515
Protein ESCO2 (Q56NI9), SILAC run C6
  C6 log (H4K5me/H4K5): -0.4491
Protein ETF1 (B7Z7P8), run B6
  B6 log2 (H4K5me/H4K5): 0.07104
Protein ETF1 (B7Z7P8), run C6
  C6 log (H4K5me/H4K5): -0.1331
Protein EXOSC10 (Q01780), SILAC run B6
  B6 log2 (H4K5me/H4K5): -0.8849
Protein EXOSC10 (Q01780), SILAC run C6
  C6 log (H4K5me/H4K5): -0.02506
Protein EZR (E7EQR4), run B6
  B6 log2 (H4K5me/H4K5): 0.03943
Protein EZR (E7EQR4), run C6
  C6 log (H4K5me/H4K5): 0.1462
Protein F8VVM2 SLC25A3, run B6
  B6 log2 (H4K5me/H4K5): 0.1434
Protein F8VVM2 SLC25A3, run C6
  C6 log (H4K5me/H4K5): 0.03702
